This passage reports growth results from the supplement of paper PMC8007513.

The list shows a part of the results. Single values are uncertain, as repeats are few or missing.

The test system of this assay is Saccharomyces cerevisiae BY4743. As to the kind of experiment: growth (OD600) with compound + IPBC relative to untreated control; higher = less growth inhibition. To be noted: compound concentration: 133 uM; IPBC concentration: 0.5 ug/ml; 20 h. As to the method:
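NMCCC compounds (133 uM) combined with IPBC (0.5 ug/ml) against Saccharomyces cerevisiae BY4743 in YPD, 96-well plates. Growth was read as OD600 at 20 h and expressed as % of the untreated control. Single pass.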
As for `Cn1c(Cc2nnn(Cc3ccc(Cl)cc3Cl)n2)nnc1SCC#N` + CCCCNC(=O)OCC#CI [3-iodo-2-propynyl butylcarbamate (IPBC)], the growth worked out at 100%.
On to `CNc1snc(C)c1C(=O)OCc1coc(-c2cccs2)n1` + CCCCNC(=O)OCC#CI [3-iodo-2-propynyl butylcarbamate (IPBC)], for which the growth stood at 105%.
As for `Cc1cc(N)n(S(=O)(=O)c2cn(C)nc2C)n1` + CCCCNC(=O)OCC#CI [3-iodo-2-propynyl butylcarbamate (IPBC)], the growth was determined as 104%.
`Cc1nc(O)c(C#N)c(C)c1CCC(=O)N(C)Cc1ccc(OC(F)F)cc1` + CCCCNC(=O)OCC#CI [3-iodo-2-propynyl butylcarbamate (IPBC)]: the growth stood at 113%.
Regarding `CC(NC(=O)CSc1nc(O)c(C#N)c(-c2ccc(Cl)cc2)n1)c1ccccc1` (stereo unspecified) + CCCCNC(=O)OCC#CI [3-iodo-2-propynyl butylcarbamate (IPBC)], the growth is 106%.
As for `CC(=O)c1c(C)[nH]c(C(=O)COC(=O)c2cccc(OC(F)F)c2)c1C` + CCCCNC(=O)OCC#CI [3-iodo-2-propynyl butylcarbamate (IPBC)], the growth was found to be 99.8%.
For `Cc1noc(C(=O)N2CCC(Cc3ccccc3)CC2)c1Cl` + CCCCNC(=O)OCC#CI [3-iodo-2-propynyl butylcarbamate (IPBC)], the growth turned out to be 90.5%.
Regarding `O=C(CCNc1nc(Cl)nc2nc[nH]c12)NCCc1c[nH]cn1` + CCCCNC(=O)OCC#CI [3-iodo-2-propynyl butylcarbamate (IPBC)], the growth amounted to 104%.
`CC(OC(=O)\C1=N\N(C(=O)CC1)C2=CC=CC=C2)C(=O)NC3=CC=CC=C3OC(F)F` (stereo unspecified) + CCCCNC(=O)OCC#CI [3-iodo-2-propynyl butylcarbamate (IPBC)]: the growth was 103%.
Take `CN(C1CCCCC1)C(=O)\C2=C\C(=N/[S](=O)(=O)N2C)C3=CC=C(F)C=C3` + CCCCNC(=O)OCC#CI [3-iodo-2-propynyl butylcarbamate (IPBC)]: the growth is 98.4%.
For the molecule `CC(C)c1nc(SC(C(=O)Nc2ccc(F)cc2)C(C)C)n[nH]1` (stereo unspecified) + CCCCNC(=O)OCC#CI [3-iodo-2-propynyl butylcarbamate (IPBC)], the growth is 104%.
As for `Cc1ccnc(NS(=O)(=O)c2ccc(NS(=O)(=O)Cc3ccccc3)cc2)n1` + CCCCNC(=O)OCC#CI [3-iodo-2-propynyl butylcarbamate (IPBC)], the growth was found to be 96.8%.
As for `Cc1cc(C)nc(SCc2nnc(SCC(N)=O)n2-c2ccc(Cl)cc2)n1` + CCCCNC(=O)OCC#CI [3-iodo-2-propynyl butylcarbamate (IPBC)], the growth was 97.1%.
In the case of `COc1ccc(N(CCC(N)=O)CC(=O)NC(C)c2ccc3c(c2)OCO3)cc1` (stereo unspecified) + CCCCNC(=O)OCC#CI [3-iodo-2-propynyl butylcarbamate (IPBC)], the growth stood at 103%.
Regarding `Cc1ccc(S(=O)(=O)N(C)c2c(C)ccc(S(=O)(=O)N3CCCC3)c2C)cc1` + CCCCNC(=O)OCC#CI [3-iodo-2-propynyl butylcarbamate (IPBC)], the growth was determined as 86.3%.
The result for `CCN1\C=C(\C#N)C(=O)N(CC(=O)NC2=CC=C(C)C=C2Cl)C1=O` + CCCCNC(=O)OCC#CI [3-iodo-2-propynyl butylcarbamate (IPBC)] reads 111%; that for `Cc1cc(C)c(S(=O)(=O)N2CCCCC2)cc1N(C)S(=O)(=O)c1ccc(Cl)cc1` + CCCCNC(=O)OCC#CI [3-iodo-2-propynyl butylcarbamate (IPBC)], 103%; that for `CCOC(=O)c1c(C)c(-c2ccccc2)n(CC(=O)NCCN2CCCCC2C)c1C` (stereo unspecified) + CCCCNC(=O)OCC#CI [3-iodo-2-propynyl butylcarbamate (IPBC)], 108%.
Regarding `CCN(c1ccc(-c2csc(N3CCN(C)CC3)n2)cc1)S(C)(=O)=O` + CCCCNC(=O)OCC#CI [3-iodo-2-propynyl butylcarbamate (IPBC)], the growth was 85.1%.
As for `Cc1cccc(Cl)c1NS(=O)(=O)c1ccc(C)c(N2CCCC2=O)c1C` + CCCCNC(=O)OCC#CI [3-iodo-2-propynyl butylcarbamate (IPBC)], the figure is 100%; as for `COC(=O)c1cc2oc(C)cc2n1CC(=O)N1CC(C)CC(C)C1` (stereo unspecified) + CCCCNC(=O)OCC#CI [3-iodo-2-propynyl butylcarbamate (IPBC)], 99.5%; as for `CCOC(=O)c1ccc(NC(=O)NC2CC(=O)N(C3CCCC3)C2)cc1` (stereo unspecified) + CCCCNC(=O)OCC#CI [3-iodo-2-propynyl butylcarbamate (IPBC)], 89%.
`CCOC(=O)c1sc(NC(=O)CSc2n[nH]c(CC(C)C)n2)nc1C` + CCCCNC(=O)OCC#CI [3-iodo-2-propynyl butylcarbamate (IPBC)]: the growth came out at 94.8%.
Consider `CSc1nc(C)c(CCC(=O)OCc2cn3cc(Cl)ccc3n2)c(C)n1` + CCCCNC(=O)OCC#CI [3-iodo-2-propynyl butylcarbamate (IPBC)], for which the growth was found to be 102%.
`CC(=O)Nc1nc(COC(=O)CNC(N)=O)cs1` + CCCCNC(=O)OCC#CI [3-iodo-2-propynyl butylcarbamate (IPBC)]: the growth stood at 89.6%.
Regarding `CCCc1cc(O)nc(SCC(=O)N2CCc3sccc3C2)n1` + CCCCNC(=O)OCC#CI [3-iodo-2-propynyl butylcarbamate (IPBC)], the growth is 104%.
Turning to `CCn1cnnc1CNC(=O)NCc1ccc(NC(=O)C(F)(F)F)cc1` + CCCCNC(=O)OCC#CI [3-iodo-2-propynyl butylcarbamate (IPBC)], the growth stood at 102%.
Consider `CCOC(=O)c1ccc(N2CCN(C(=O)COc3ccccc3)CC2)nc1` + CCCCNC(=O)OCC#CI [3-iodo-2-propynyl butylcarbamate (IPBC)], for which the growth was 102%.
As for `COc1cc(NCC(=O)N2CCC(C)Sc3ccccc32)c(OC)cc1Cl` (stereo unspecified) + CCCCNC(=O)OCC#CI [3-iodo-2-propynyl butylcarbamate (IPBC)], the growth stood at 97%.
Consider `CCCN(Cc1cccs1)C(=O)Nc1cc(Cl)ccc1OC` + CCCCNC(=O)OCC#CI [3-iodo-2-propynyl butylcarbamate (IPBC)], for which the growth was 74.7%.
In the case of `CCc1ccc(OC(C)C(=O)Nc2ccc3nsnc3c2)cc1` (stereo unspecified) + CCCCNC(=O)OCC#CI [3-iodo-2-propynyl butylcarbamate (IPBC)], the growth was found to be 72.7%.
